PubChem BioAssay AID720505, Drosophila RNAi Screening Center – 2013

Test: 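Knock-downs that reduce calcium influx once internal stores are emptied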 (primary screen)
Cell system: Drosophila S2R+ cells
Reagent: long dsRNA against Drosophila genes
Conditions: thapsigargin (2 µM) in calcium-free buffer to empty internal stores, then 2 mM calcium added back
Measured: 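Fluo-4 signal in 384-well plates read on a FLIPR after thapsigargin (2 µM, calcium-free) store depletion and 2 mM calcium add-back; unnormalised mean endpoint per well; screen run twice, selected wells retested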
Scale: calcium signal and retest calcium signal: higher = more calcium entry after store depletion
Call rule: 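Knock-downs counted as hits when calcium entry dropped relative to STIM1 positive and Rho1 negative controls present on each plate; roughly 1500 genes called, with reductions of differing size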
Meaning of the calls: active = called as lowering calcium entry; inactive = not called
The deposit covers about 20,000 reagents; shown is an unselected part of those with a known target gene and a result. In the full data, about 2,100 (10%) got an active call. 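Raw plate signals without normalisation; calls rest on control-based scores that were not deposited; replicate 2 separates called from uncalled poorly.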 Reagents against one gene are numbered here. Reagent sequences are not shown. Not stated in the record: the amount of reagent, the time to read-out.

After knock-down of CG17666, the screen gave calcium signal, replicate 1 = 76.2; calcium signal, replicate 2 = 87.2; inactive.
After knock-down of Or33c (Odorant receptor 33c), the record shows calcium signal, replicate 1 = 84.2; calcium signal, replicate 2 = 106; inactive.
Against Sema2a (Semaphorin 2a), the entry reads calcium signal, replicate 1 = 171; calcium signal, replicate 2 = 93.1; inactive.
Knock-down of CG33332 gave: calcium signal, replicate 1 = 110; calcium signal, replicate 2 = 173; inactive.
Knock-down of CG7214 #1 gave: calcium signal, replicate 1 = 65.8; calcium signal, replicate 2 = 62.4; retest calcium signal, replicate 1 = 158; retest calcium signal, replicate 2 = 219; active.
After knock-down of CG7214 #2, the record shows calcium signal, replicate 1 = 80.6; calcium signal, replicate 2 = 165; inactive.
kl-5 (retired record) #1 scored calcium signal, replicate 1 = 65.6; calcium signal, replicate 2 = 176; active.
kl-5 (retired record) #2 gave calcium signal, replicate 1 = 56.4; calcium signal, replicate 2 = 9608; active.
Depletion of kl-5 (retired record) #3 gave: calcium signal, replicate 1 = 106; calcium signal, replicate 2 = 8840; inactive.
With knock-down of kl-5 (retired record) #4 the results were calcium signal, replicate 1 = 66.2; calcium signal, replicate 2 = 98.1; inactive.
CG14013 showed calcium signal, replicate 1 = 90.6; calcium signal, replicate 2 = 88.4; inactive.
Depletion of Septin1 (Septin 1) resulted in: calcium signal, replicate 1 = 101; calcium signal, replicate 2 = 109; inactive.

2 of these entries in another layout.
| predicted target | reagent | calcium signal, replicate 1 | calcium signal, replicate 2 | retest calcium signal, replicate 1 | retest calcium signal, replicate 2 | Outcome |
| --- | --- | --- | --- | --- | --- | --- |
| CG7214 | 1 | 65.8 | 62.4 | 158 | 219 | active |
| CG7214 | 2 | 80.6 | 165 | – | – | inactive |
